# Library screening results

By UniProt entry, the sequences of proteins in these tests, tags left out.
UniProt E9BF75, entry or part of it: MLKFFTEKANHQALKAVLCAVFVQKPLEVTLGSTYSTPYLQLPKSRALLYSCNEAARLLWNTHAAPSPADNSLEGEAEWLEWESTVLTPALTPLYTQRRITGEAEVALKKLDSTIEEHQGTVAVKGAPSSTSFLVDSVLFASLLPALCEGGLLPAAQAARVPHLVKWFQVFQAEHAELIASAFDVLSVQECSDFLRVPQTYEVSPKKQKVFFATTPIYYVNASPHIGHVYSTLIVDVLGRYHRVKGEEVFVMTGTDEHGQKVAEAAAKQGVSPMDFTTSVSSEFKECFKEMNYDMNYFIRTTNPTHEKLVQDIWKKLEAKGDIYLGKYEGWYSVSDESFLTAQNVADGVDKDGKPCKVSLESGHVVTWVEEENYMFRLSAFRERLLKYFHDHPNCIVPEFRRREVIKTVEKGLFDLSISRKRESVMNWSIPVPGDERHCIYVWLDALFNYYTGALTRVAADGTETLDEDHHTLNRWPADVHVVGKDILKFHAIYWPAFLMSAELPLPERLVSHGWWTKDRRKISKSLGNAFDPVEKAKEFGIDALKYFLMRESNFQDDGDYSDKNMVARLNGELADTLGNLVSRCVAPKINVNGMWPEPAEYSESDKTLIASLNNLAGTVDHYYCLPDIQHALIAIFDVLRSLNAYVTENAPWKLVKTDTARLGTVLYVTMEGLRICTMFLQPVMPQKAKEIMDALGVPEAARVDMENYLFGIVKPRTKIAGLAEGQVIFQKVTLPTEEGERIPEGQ

Source: ChEMBL document CHEMBL3988442, “University of Dundee, Small-Polar-MMV Screening Library” (2021).

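Methionyl-tRNA synthetase (putative), Leishmania donovani (UniProt E9BF75). Primary screen of methionyl-tRNA synthetase; the read-out is not stated. The test concentration is not given. The values are filed as inhibition. About 68,000 compounds were tested under these conditions; 0.035% (about 24) showed 50% or more at least once.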

Results are percentages, as filed.
The controls that fix the scale are not given in the record; negative values are as filed.
This is an unselected part of the compounds tested.

With Cc1ccc(C(=O)NC2CCN(Cc3nc(CC(C)C)no3)CC2)s1 the screen gave 5.177%. For Cc1noc(C)c1C(=O)N1C[C@H]2CCC[C@@]2(COc2ccccn2)C1 the result was 5.579%. COc1c(C2CCCN2Cc2cccc(C(N)=O)c2)c(C)nn1C (stereo not shown) read 26.2%. For CC(=O)c1cccc(S(=O)(=O)NCCNC(=O)c2snnc2C)c1 the result was 11.17%.

Result for O=C(Nc1cc(F)ccc1OCC1CCCO1)c1ccccn1 (stereo not shown) was 11.11%. COc1ccccc1-c1noc(CNc2ccc(F)cc2OCCO)n1 read 10.68%. With CC(C)N(C)C(=O)C1=NOC2(CCN(C(=O)c3ccncc3)C2)C1 (stereo not shown) the screen gave 14.5%. With CCCN1CCC(CC(=O)N2CCC(C(O)c3nccn3C)CC2)CC1 (stereo not shown) the screen gave 20.63%.

For CC(C)Oc1ccc(CNC(=O)c2cc(C(N)=O)cs2)cc1F the result was 10.21%. With CCn1nc(C)cc1C(=O)N1CCC(Nc2ccc(C)nn2)CC1 the screen gave 8.383%. For Cc1cccc(-c2noc(Cn3nc(C(N)=O)ccc3=O)n2)c1 the result was 4.878%. CC(C(=O)NCc1ccc(N2CCCCCC2)nc1)n1cncn1 (stereo not shown) read 15%.

c1cc(CN2C[C@@H]3OCCN(CCN4CCCC4)[C@@H]3C2)co1 read 13.09%. Result for COc1ccccc1Cc1cncc(N2CC(C(=O)O)C2)n1 was 13.35%. With Cn1ccnc1CN1C(=O)CO[C@H]2CN(CCCc3ccccc3)C[C@H]21 the screen gave 15.25%. N#Cc1ccc(C(=O)N2CC(c3nc(-c4ncccn4)no3)C2)cc1 read 7.914%.

COC1CCN(C(=O)CCn2cccn2)CC1 read 12.38%. For CCn1nc(C)c(CNC(=O)c2nnc3ccc(OC)cc3n2)c1C the result was 10.48%. With COCC1CN(Cc2ccc(C)o2)Cc2cnn(CC3CCOCC3)c21 (stereo not shown) the screen gave 8.065%. For CC(C)CCc1n[nH]c(C(=O)O)c1Cl the result was 6.434%.

With CCOC(=O)CSc1nnc([C@@H](N)C(C)C)o1 the screen gave 16.71%. For Cc1ncsc1C(=O)NC1CCN(CCC(=O)Nc2ccccc2)CC1 the result was 12.57%. For CC(=O)Nc1ccc(CNC(=O)CNCc2snnc2C)cc1 the result was 5.74%. CCOCc1cc(CN2CCn3c(CO)nnc3C2)ccc1OC gave 21.86%.

With COCc1cc(CC2(NCc3ccccc3Cl)COC2)no1 the screen gave 9.153%. With O=C(C[C@@H]1COC[C@H]2CN(C3CCCC3)C[C@@H]12)N1CCCCO1 the screen gave 3.65%. For COc1ccc(CNc2c(C)nn(C(C)C)c2C)cc1 the result was 1.795%. For Cc1ncc(CNC(=O)NCc2c(F)cccc2OC(F)F)s1 the result was 10.92%.

For reference, 4 entries once more:

{"smiles": "COCc1cc(CC2(NCc3ccccc3Cl)COC2)no1", "inhibition": 9.153}
{"smiles": "CC(=O)Nc1ccc(CNC(=O)CNCc2snnc2C)cc1", "inhibition": 5.74}
{"smiles": "O=C(Nc1cc(F)ccc1OCC1CCCO1)c1ccccn1", "stereo": "stereo not shown", "inhibition": 11.11}
{"smiles": "CCn1nc(C)cc1C(=O)N1CCC(Nc2ccc(C)nn2)CC1", "inhibition": 8.383}